Source: PubChem BioAssay AID1347426 (Functional Genomics Laboratory (NCATS/FGL), 2020)
Out of some 31,000 sequences screened, about 1,400 (4.5%) were called active.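 How the source made its calls: active means median seed-adjusted z-score above 1 or below -1; inactive means the rest.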 The list shows a part of the results.

Test: Novel Modifiers of Survival Motor Neuron (SMN) Protein: Gene Identification via Genome-wide siRNA Screen;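 further: luminescence tracks full-length SMN protein made from the SMN2 reporter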
Conditions: HEK293T SMN2-luciferase reporter, siRNA knockdown, 72 h; actives lie on both sides
How it was run: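 Genome-wide siRNA screen (10418 genes, 3 siRNAs each, 1 pmol per well) by reverse transfection in HEK293T cells stably carrying an SMN2-luciferase reporter; luminescence after 72 hours, normalized to negative-control siRNA, log10-transformed, MAD-scored.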
With GGAAAAGCUUUAAUCGACATT against ZNF193 the median seed-adjusted z-score was inactive: 0.276.
In the case of CAACAAGAAUAUCCGCAAATT against EIF2AK3, the median seed-adjusted z-score is reported as inactive: -0.0208.
With GCAAUUUGGUGGUCAGAGATT against PCDHAC1 the median seed-adjusted z-score was inactive: -0.189.
In the case of CAGACUUUUAUAACCCUUUTT against CLDN7, the median seed-adjusted z-score is reported as inactive: 0.0208.
In the case of CCCUGGUAGUUCCACACCATT against CRHBP, the median seed-adjusted z-score is reported as inactive: -0.0443.
In the case of CCUACUAUGUGAGCAAUGATT against EEF1G, the median seed-adjusted z-score is reported as inactive: -0.206.
In the case of UCAUUGUUGUGGGCCGAUATT against DDB2, the median seed-adjusted z-score is reported as inactive: 0.
For GCCAUGUGUUUAUCCUAAATT against DBI, the median seed-adjusted z-score was inactive: 0.0661.
In the case of GAUAGGACCUUGAUAUAUATT against ARPC3, the median seed-adjusted z-score is reported as inactive: -0.237.
With CCUCACGCAUCUAUAUUUATT against ANP32C the median seed-adjusted z-score was inactive: -0.421.
In the case of CGUCUAUACUUUGCGGAAATT against MAST2, the median seed-adjusted z-score is reported as inactive: 0.27.
For GGAUUAUGAGAGAUCCAGATT against NRAP, the median seed-adjusted z-score was inactive: -0.205.
In the case of GCUUUGAGGGUUUGAAGAATT against GSTM5, the median seed-adjusted z-score is reported as inactive: -0.861.
With GAGUCAUUCCUAACGUACATT against INADL the median seed-adjusted z-score was inactive: 0.53.
For CAGGUACAGCGCAUCGUUATT against EDC4, the median seed-adjusted z-score was inactive: 0.
In the case of GCGUGGAGAUCUUGCCUGUTT against CHPF, the median seed-adjusted z-score is reported as inactive: 0.248.
For CAACAUCUGCUACAAUGUATT against ACSS2, the median seed-adjusted z-score was inactive: 0.
In the case of GGACGAAAGAACUCAGGAATT against DYRK1B, the median seed-adjusted z-score is reported as inactive: 0.29.
With GGGUGAUAUAAAGUCAAAATT against SFRS6 the median seed-adjusted z-score was inactive: 0.378.
With AGAAAUCGGUUUGAAGUUATT against TRMU the median seed-adjusted z-score was inactive: 0.0312.
In the case of GGAAUAAAAUCACUCAAGATT against CHFR, the median seed-adjusted z-score is reported as inactive: -0.673.
For CGAGAGCAAGUGUGAGUAUTT against ZNF295, the median seed-adjusted z-score was inactive: 0.371.
With GCCGUGUAUUUGGUCCGUUTT against NCBP1 the median seed-adjusted z-score was inactive: 0.785.
For GCAGCUGUAAGGAACUUCATT against USP32, the median seed-adjusted z-score was inactive: 0.484.
In the case of CAAUAUCUGCUGCGCGGAATT against OXT, the median seed-adjusted z-score is reported as inactive: 0.553.
For GGGCCGCUUUAGAAAGGUATT against SNX1, the median seed-adjusted z-score was inactive: 0.0261.
With CGGGAGCAUUGGAUGAGAATT against ARL8A the median seed-adjusted z-score was inactive: -0.0844.
For GGCACUUUUUCUCAGCUGATT against HBD, the median seed-adjusted z-score was inactive: 0.
For GGCUUAUGACCGAGAAAAATT against ARHGAP18, the median seed-adjusted z-score was inactive: 0.
In the case of GUAACACCAUAUAUCAAGATT against SNTB2, the median seed-adjusted z-score is reported as inactive: 0.268.
For GGAUCAAGAGAGAAGGUCATT against HELLS, the median seed-adjusted z-score was inactive: 0.192.
With GGCUUUACUCCGUAACAGATT against RHOA the median seed-adjusted z-score was inactive: -0.219.
In the case of CAAUUAUUGCAGUGCGUAUTT against NEUROD6, the median seed-adjusted z-score is reported as inactive: -0.261.
In the case of GGUUUUGAAAUUAUCCAAATT against STARD5, the median seed-adjusted z-score is reported as inactive: -0.0333.
With GACGAAUCACUGCAGUUUATT against GOSR2 the median seed-adjusted z-score was active: -1.25.
For GGUUCUCUAUGGGCGCAUATT against HTR1A, the median seed-adjusted z-score was inactive: 0.
In the case of GGAGGAAUCUCCAAUGUAUTT against LYPLAL1, the median seed-adjusted z-score is reported as inactive: -0.425.
With GGGCUUCAGCUUAAAGGCATT against NUP62 the median seed-adjusted z-score was inactive: 0.
In the case of GCAUUGUGACGGAUGCUAUTT against PCSK1, the median seed-adjusted z-score is reported as inactive: 0.154.
For GCUCACAGAUGAGUUCUAUTT against NXNL1, the median seed-adjusted z-score was inactive: 0.334.
For CAGGCACUGUCUUUAAACATT against SERPINB9, the median seed-adjusted z-score was inactive: 0.
In the case of GGUUCAUCCUGGACCCGAATT against NCR1, the median seed-adjusted z-score is reported as inactive: -0.26.
In the case of GAAAUAAAUUCACAGUCAATT against FABP2, the median seed-adjusted z-score is reported as inactive: 0.
For GGACUUCUUUAGGCAGAUATT against NDUFA8, the median seed-adjusted z-score was inactive: -0.752.
With GGACCAUUGUGCGUUUCAATT against SERPINA3 the median seed-adjusted z-score was inactive: 0.125.
With GCAAAUCAGAGGUUCAGAUTT against SQLE the median seed-adjusted z-score was active: -1.14.
For GGAAAUAGAAAACUCCGAATT against SPAG1, the median seed-adjusted z-score was inactive: 0.413.
In the case of GCAAAUUGAUGAACCGGUUTT against CEP135, the median seed-adjusted z-score is reported as inactive: -0.2.
In the case of GGAUGUUAUGGGAAAUGAATT against PPM1A, the median seed-adjusted z-score is reported as inactive: 0.0153.
For CCUUGUACAUCGUGGGAUATT against PDSS2, the median seed-adjusted z-score was inactive: 0.111.
With CCUUGAAUGCCGACAAGAATT against MATN3 the median seed-adjusted z-score was inactive: 0.0972.
For CUCAUAUUCUUUUACGAUATT against EFHA2, the median seed-adjusted z-score was inactive: 0.166.
With GAACCACAUUUAUUGGAUUTT against GPR82 the median seed-adjusted z-score was inactive: -0.83.
In the case of AGAUGUCCAGACCAAGAUATT against CREBL1, the median seed-adjusted z-score is reported as inactive: -0.348.
In the case of AGAACACCUUUAGAAAUAATT against TWIST1, the median seed-adjusted z-score is reported as inactive: -0.159.
With CGGGCAUUCUUAUUAGUCATT against SLC2A2 the median seed-adjusted z-score was inactive: -0.498.
In the case of CCUCAUCCCUUAGACUGCATT against ZNF558, the median seed-adjusted z-score is reported as inactive: -0.393.
In the case of GCGAGACGACGUUUCUGAATT against DBX1, the median seed-adjusted z-score is reported as inactive: 0.0137.
With GGAGCUACUUUGACUCACUTT against KCNK13 the median seed-adjusted z-score was inactive: -0.0924.
For GGAUAACAGUGAGUCAAGATT against SUFU, the median seed-adjusted z-score was inactive: -0.263.
For GGAGUAGGGUGUUUCGAGATT against MKNK1, the median seed-adjusted z-score was inactive: 0.221.
For GCUACUUCAAGGACAGAUATT against NHLRC2, the median seed-adjusted z-score was inactive: 0.548.
For GAAUGUAAGCGAUGUGGUATT against ZNF136, the median seed-adjusted z-score was inactive: 0.229.
With GUAUAUAGAAGGUAUAGCATT against GSTA1 the median seed-adjusted z-score was inactive: 0.27.
With GCAGACCUGUGACAUCGAATT against RGS14 the median seed-adjusted z-score was inactive: 0.655.
For CCUUGAUGUUUCUCAGUUUTT against ZNF433, the median seed-adjusted z-score was inactive: 0.
For GCAACGAACUUCUUAGGAATT against SERAC1, the median seed-adjusted z-score was inactive: -0.0919.
With CCUGAACGGUUUUGAUGUATT against CDC20 the median seed-adjusted z-score was inactive: 0.191.
For GAGCUAUGGUUACACGGUUTT against GABRQ, the median seed-adjusted z-score was inactive: -0.54.
